# Results of single-concentration screens

Amino acid sequences for entries named in this document (tags omitted). Residues count along the entry.
UniProt Q8IDJ8, 1-583: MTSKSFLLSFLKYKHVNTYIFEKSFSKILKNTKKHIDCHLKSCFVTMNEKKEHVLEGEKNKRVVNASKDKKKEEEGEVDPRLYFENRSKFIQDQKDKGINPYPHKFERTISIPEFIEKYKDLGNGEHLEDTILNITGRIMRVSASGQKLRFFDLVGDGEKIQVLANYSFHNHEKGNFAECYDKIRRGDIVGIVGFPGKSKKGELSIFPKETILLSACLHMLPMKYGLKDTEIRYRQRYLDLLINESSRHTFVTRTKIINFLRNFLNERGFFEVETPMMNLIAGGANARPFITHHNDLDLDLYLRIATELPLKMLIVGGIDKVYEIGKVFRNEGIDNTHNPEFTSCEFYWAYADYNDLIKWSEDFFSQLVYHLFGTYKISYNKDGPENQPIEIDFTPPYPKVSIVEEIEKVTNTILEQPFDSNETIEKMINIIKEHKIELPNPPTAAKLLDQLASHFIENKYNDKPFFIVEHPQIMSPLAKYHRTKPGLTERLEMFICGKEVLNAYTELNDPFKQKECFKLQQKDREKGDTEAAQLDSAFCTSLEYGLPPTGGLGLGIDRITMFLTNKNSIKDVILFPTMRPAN
UniProt P9WFT3, whole entry: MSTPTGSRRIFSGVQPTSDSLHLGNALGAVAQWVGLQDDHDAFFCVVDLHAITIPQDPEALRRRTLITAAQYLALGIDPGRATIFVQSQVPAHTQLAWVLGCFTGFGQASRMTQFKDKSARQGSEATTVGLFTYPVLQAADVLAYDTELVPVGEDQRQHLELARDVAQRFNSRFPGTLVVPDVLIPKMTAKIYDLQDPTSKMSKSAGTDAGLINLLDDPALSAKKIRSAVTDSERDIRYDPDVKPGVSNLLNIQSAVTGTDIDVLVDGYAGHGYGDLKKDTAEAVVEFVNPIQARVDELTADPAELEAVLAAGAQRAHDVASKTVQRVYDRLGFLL
UniProt P9WPC5, whole entry: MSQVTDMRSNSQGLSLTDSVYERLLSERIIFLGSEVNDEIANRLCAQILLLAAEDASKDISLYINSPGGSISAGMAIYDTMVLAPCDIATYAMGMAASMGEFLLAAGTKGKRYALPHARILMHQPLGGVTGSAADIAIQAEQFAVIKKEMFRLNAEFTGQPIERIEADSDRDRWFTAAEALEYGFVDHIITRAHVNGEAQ
UniProt P9WPC3, whole entry partner: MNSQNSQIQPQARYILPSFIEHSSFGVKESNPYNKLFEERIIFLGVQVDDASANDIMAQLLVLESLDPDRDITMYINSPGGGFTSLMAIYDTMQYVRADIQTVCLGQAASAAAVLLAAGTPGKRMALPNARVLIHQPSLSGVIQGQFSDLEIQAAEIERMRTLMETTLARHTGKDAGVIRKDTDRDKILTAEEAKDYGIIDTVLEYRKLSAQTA

Each number is a percent effect as filed.
The controls that fix the scale are not given in the record; negative values are as filed.
This is an unselected part of the compounds tested.
A dash means the value is not listed here; it may have been measured.

PfKRS1: 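Enzyme assay of the cytosolic lysyl-tRNA synthetase in 384-well plates, read by luminescence. Target: Lysine-tRNA ligase, Plasmodium falciparum 3D7 (UniProt Q8IDJ8). Compounds at 30 µM. Direction is inferred from only a few compounds that gave an IC50; most scored high, so higher reads as stronger inhibition. About 69,000 compounds were tested under these conditions; 0.071% (about 49) showed 50% or more at least once.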
MtTrpRS: 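Tryptophan-tRNA ligase, Mycobacterium tuberculosis (UniProt P9WFT3). Enzyme assay of tryptophanyl-tRNA synthetase; the read-out is not stated. Concentration: 10 µM. Higher most likely means stronger inhibition; the record gives no direction and few retests gave an IC50. About 65,000 compounds were tested under these conditions; 0.098% (about 64) showed 50% or more at least once.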
ClpP1P2: 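Protease assay of ClpP1P2, read by the AMC dye that it sets free. Target: ClpP1P2, Mycobacterium tuberculosis (UniProt P9WPC5 and UniProt P9WPC3). Concentration: 50 µM. Higher reads as stronger inhibition, judged from the few compounds that gave an IC50. Most other retested compounds had strongly negative values. Size under these conditions: about 69,000 compounds, about 10 of them at 50% or above in at least one test.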

structure	PfKRS1	MtTrpRS	ClpP1P2
Fc1cnc(N2CC[C@@H]3O[C@@H](COCc4ccccn4)CC[C@@H]32)nc1	-4.609	4.328	18.09
c1cnnc(N2CCCC2CNCc2nc(-c3ccsc3)no2)c1 (configuration not stated)	-1.876	-3.192	-4.395
CS(=O)(=O)N1CCO[C@@H]2CN(C(=O)C3CC(F)(F)C3)C[C@@H]2C1	3.742	-	-8.132
O=C(NCC(Cc1cccc(F)c1)N1CCCC1=O)c1ccc(=O)[nH]n1 (configuration not stated)	6.226	2.68	-5.263
Cn1cnc(S(=O)(=O)N2CCCC2c2cnccn2)c1 (configuration not stated)	1.443	-0.1569	-14.02
Cc1ccc(N2CC[C@@H](NC(=O)c3cnccn3)[C@H](O)C2)nn1	1.924	2.43	-0.1525
Cc1ccsc1CN1CCC(c2nnc(Cn3cccn3)n2C)CC1	6.933	2.419	-21.34
O=C1C(Sc2nc(=O)ccn2C2CC2)CCN1c1ccccc1 (configuration not stated)	1.262	-7.545	-14.08
CCN(CC)S(=O)(=O)N1CC[C@H](c2ccccc2)[C@H]2NCCCC[C@H]21	-0.1613	-2.029	9.336
CO[C@@H]1CCN(Cc2nccn2C)[C@H]1Cc1cccnc1	-1.277	5.185	-1.709
CCN(CC)S(=O)(=O)CC(=O)N1CCc2ccc(F)cc21	4.031	-2.667	-15.39
Cc1cc(CNC(=O)N2CCc3ccccc32)on1	3.373	1.338	2.606
Cc1cccc(C)c1OCC(O)CNCc1c(C)nn(C)c1N(C)C (configuration not stated)	3.159	1.743	-8.257
CC(NCC1CCN(CCO)CC1)c1cccnc1 (configuration not stated)	1.555	-2.981	1.759
Cc1nc(CCCNC(=O)c2c(F)cccc2Br)n[nH]1	2.331	-2.16	21.05
Cc1ccccc1N1CCCN(C(=O)CC2CN(C(C)C)CCO2)CC1 (configuration not stated)	1.397	-5.012	-7.853
CC(=O)N1CCn2c(C(=O)N(C)C)cnc2C1	4.516	-1.586	2.389
Cc1nc(Nc2nccs2)cc(C2CCCN2)n1 (configuration not stated)	1.024	-8.431	-29.44
O=c1n(Cc2cccc(F)c2)nc2ncccn12	4.474	-3.985	20.91
Cc1[nH]c2ccccc2c1CCNC(=O)N1CCC2(C1)OCCO2	6.256	0.08842	-0.7127
CN(Cc1nnc2n1CCC2)C(=O)c1ccc2c(c1)OCCCO2	-0.9951	19.77	-7.751
COc1cc(C(=O)N(Cc2cccs2)C2CC2)cc2c1OCCO2	-3.705	6.879	-9.623
Cc1c(-c2cc(C(F)(F)F)nc(N3CCC(N)CC3)n2)cnn1C	4.323	3.25	-7.574
O=C(CC1CC1)N1CCN(Cc2ccncc2)c2ncccc2C1	4.529	-3.812	-12.83
C[C@H]1CN(C)C[C@@]12COCCN(C(=O)Cc1ccccc1)C2	3.345	-0.6506	-1.26
CCCc1nc(C(C)(C)NC(=O)C2CC(=O)N(CC(C)C)C2)no1 (configuration not stated)	0.1977	-7.969	-8.229
COc1ccc2c(c1)OCC(CNc1cc(N)nc(SC)n1)C2 (configuration not stated)	1.276	6.026	-8.698
Cn1cc(N2C[C@@H]3CN(Cc4ccccn4)C[C@@H]3C2=O)cn1	-1.736	11.37	3.509
CC(C)(C)c1noc(CCC(=O)N2CCNC(=O)C2)n1	-1.524	-3.372	3.805
O=C(c1cc(C2CC2)nc2onc(-c3ccccc3)c12)N1CC(O)C1	1.994	-0.3631	-4.525
Cc1cc(F)ccc1CNCCn1cccn1	5.077	-1.896	-7.147
CSCc1cc(C(=O)NC2(C#N)CCSC2)ccc1F (configuration not stated)	4.227	-1.493	1.881
Cc1ccnc(N2CCC(OCCN3CCCCC3)C2)n1 (configuration not stated)	0.9581	-4.919	-4.735
CC(=O)N1CCN(Cc2coc(-c3cccc(F)c3)n2)CC1	1.004	-6.426	5.554
Cc1ccc(CN2C[C@@H]3COC[C@H](C(=O)N4CCCCO4)[C@@H]3C2)o1	1.871	0	7.675
COCc1nc2cc(NCc3ncc[nH]3)ccc2o1	5.183	-1.144	-6.939
CCN1CCN(C2CCN(C(C(N)=O)c3ccc(F)cc3)CC2)C1=O (configuration not stated)	1.845	14.41	-8.422
CCc1nc(CNC(=O)C2CCC(=O)N(Cc3ccccc3F)C2)no1 (configuration not stated)	-4.261	-5.21	-23.87
Cc1ccc(NC(=O)C2=CN=S=N2)cc1	-2.464	-8.25	17.94
COCC(C)N(C)C(=O)NC1CCN(S(C)(=O)=O)CC1 (configuration not stated)	4.4	-1.68	9.84
CC(=O)NC1CC(C)(C)Cc2c1cnn2-c1cccc(F)c1 (configuration not stated)	-0.05972	-2.876	-20.33
CCc1cc(CN2CCC(CCC(=O)Nc3ccccc3Cl)CC2)on1	2.671	0.4016	-5.833
CCOc1ccccc1CNS(=O)(=O)c1ccc2c(c1)CCCC(=O)N2	-12.69	0.9331	-14
CN(Cc1ccco1)C[C@H]1OC[C@@H]2CN(c3ncc(F)cn3)CC[C@@H]21	5.177	-	-16.09
Fc1ccc(N2CCN(CCCc3cn[nH]c3)CC2)cc1	-5.056	2.949	-5.525
CCCc1nc(C)c(C(=O)NC2CCN(C3CC3)C2)s1 (configuration not stated)	7.472	-2.727	2.643
CCN(CC)CCNC(=O)c1cnc(C(C)(C)C)s1	-3.974	-0.2924	-7.811
Cc1cc2nc(C(C)C)cc(N3CCN(S(N)(=O)=O)CC3)n2n1	2.987	0.9331	-11.88
Cc1cnn(CC2CCCN2C(=O)c2cc(Cl)ccc2F)c1 (configuration not stated)	-12.14	-2.128	3.74
Cn1cc(N2CCN(c3ccc(C#N)cc3F)CC2=O)cn1	3.996	-3.207	7.161
O=C(c1cccs1)N1CC(Oc2ccccc2Cl)C1	5.409	-7.869	-1.969
Cn1cc(NC(=O)c2cccc(Cl)c2)c(=O)n(C)c1=O	3.748	11.04	0.391
CN1[C@H]2CC[C@@H]1CN(C(=O)c1sccc1S(N)(=O)=O)CC2	-0.8863	1.917	-0.7308
CCN(CC)C(=O)CSc1nc2c(cnn2CCO)c(=O)[nH]1	-1.593	3.668	24.14
O=C(c1ccsc1)N1CCO[C@@H]2CN(Cc3nccs3)C[C@@H]2C1	4.018	-	1.898
CC(C)(C)c1nnc(CN2CCN(CC(O)c3ccccc3)CC2)o1 (configuration not stated)	7.288	1.81	-2.771
Cc1ccccc1-n1c(C)cc(=O)[nH]c1=O	-1.838	0	-11.82
c1cc2occc2c(N2CCCC(c3nncn3C3CC3)C2)n1 (configuration not stated)	-0.2278	-1.725	-6.784
CC(C)[C@H]1CN(S(=O)(=O)c2cccnc2)C[C@@H]1N	0.8243	0.7346	-8.627
Cc1ccc(NS(=O)(=O)c2cc3c(c(C(=O)O)c2)OCCO3)c(F)c1	-1.891	4.971	-1.863
Cc1nn(C)cc1-c1ccnc(N2CCN(c3ccccc3)C(=O)C2)n1	2.002	-2.668	-1.593
COCC(=O)N(CCC(=O)OC)CC1CCCO1 (configuration not stated)	-0.7962	0.8738	10.48
Cc1cccnc1CNc1cc(N2CCCC2CO)ncn1 (configuration not stated)	-1.866	2.318	-8.956
COc1c(C(=O)NCC(C)C)nnn1Cc1ccccc1	4.777	1.295	-7.14
CNC(=O)c1c(C)cccc1NCc1nnc(C2CC2)o1	9.128	3.66	-4.727
O=C(O)C1(Cc2ccc(-c3cccs3)cc2)CCNC1 (configuration not stated)	-1.053	-2.626	-2.979
O=C(C[C@@H]1COC[C@H]2CN(Cc3ccccc3)C[C@@H]12)N1CCCC1	6.26	3.181	-9.721
CC(C)(C)NC(=O)c1ccn(COc2c(Cl)cccc2Cl)n1	1.491	-2.928	-8.337
Cc1nc(C)n(CC2CN(c3ncnc4[nH]ccc34)CCO2)n1 (configuration not stated)	2.226	-0.8772	-2.335
CCc1cnc(N2CCCC(CCC(N)=O)C2)nc1 (configuration not stated)	-3.395	0	7.837
COCCN1CCn2c(nc3cc(C(=O)NC(C)C)ccc32)C1	8.217	-4.581	2.376

Repeated from the top, 5 entries:

| structure | PfKRS1 | MtTrpRS | ClpP1P2 |
|---|---|---|---|
| `Fc1cnc(N2CC[C@@H]3O[C@@H](COCc4ccccn4)CC[C@@H]32)nc1` | -4.609 | 4.328 | 18.09 |
| `c1cnnc(N2CCCC2CNCc2nc(-c3ccsc3)no2)c1` (configuration not stated) | -1.876 | -3.192 | -4.395 |
| `CS(=O)(=O)N1CCO[C@@H]2CN(C(=O)C3CC(F)(F)C3)C[C@@H]2C1` | 3.742 | - | -8.132 |
| `O=C(NCC(Cc1cccc(F)c1)N1CCCC1=O)c1ccc(=O)[nH]n1` (configuration not stated) | 6.226 | 2.68 | -5.263 |
| `Cn1cnc(S(=O)(=O)N2CCCC2c2cnccn2)c1` (configuration not stated) | 1.443 | -0.1569 | -14.02 |

From ChEMBL document CHEMBL3988442, “University of Dundee, Small-Polar-MMV Screening Library” (2021).